Laboratory results taken from PubChem BioAssay AID2551 (National Center for Advancing Translational Sciences (NCATS), 2010).
Out of some 310,000 compounds screened, about 17,000 (5.5%) were called active. The shares of active, inactive and inconclusive entries below differ from those in the screen. Calls follow the shape of the dose curve; as a rule, active = well fitted inhibition curve with a large enough effect; inconclusive = small, poorly fitted or top-dose-only effect, or effect the other way; inactive = no such curve, though single readings can be large or run the other way. Where the call is inconclusive, the potency comes from a doubtful curve fit.
% is scaled to controls: 0 for no effect and ±100 for the full control effect; potency is read from the fitted curve at half-maximal effect.
Also: nearly all actives have a fitted effect of over 60% in size.

The chains behind the UniProt entries cited, without tags or fusion partners. Where a name states a change or a piece, a line headed by the entry shows the natural chain unless it says otherwise.
UniProt P51450: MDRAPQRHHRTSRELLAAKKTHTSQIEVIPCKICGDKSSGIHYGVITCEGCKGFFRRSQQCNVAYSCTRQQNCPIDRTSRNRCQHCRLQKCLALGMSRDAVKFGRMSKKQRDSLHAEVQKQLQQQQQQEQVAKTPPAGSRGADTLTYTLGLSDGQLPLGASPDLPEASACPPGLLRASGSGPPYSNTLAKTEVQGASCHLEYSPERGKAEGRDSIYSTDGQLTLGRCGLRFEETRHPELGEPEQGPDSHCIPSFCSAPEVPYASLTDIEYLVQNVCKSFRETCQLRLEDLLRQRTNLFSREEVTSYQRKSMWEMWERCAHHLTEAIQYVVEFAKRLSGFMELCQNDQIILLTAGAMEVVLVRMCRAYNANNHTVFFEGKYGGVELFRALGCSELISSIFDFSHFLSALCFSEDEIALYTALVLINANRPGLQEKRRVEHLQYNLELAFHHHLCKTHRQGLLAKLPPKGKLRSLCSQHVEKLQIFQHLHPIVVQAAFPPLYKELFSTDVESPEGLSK

Each compound was assayed against Nuclear receptor ROR-gamma (Mus musculus) (UniProt P51450) (assay: qHTS for inhibitors of ROR gamma transcriptional activity). Details: Drosophila S2 Gal4-RORgamma UAS-luciferase reporter, 20 h; activity change, negative = inhibition: at 53.6 µM (top of the series).
Procedure, shortened: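 Drosophila S2 cells stably expressing Gal4-DBD/mouse RORγ fusion under metallothionein promoter plus UAS-luciferase; compound 1 h, then 700 uM CuSO4 induction for 20 h at ambient temperature; inhibition read as reduced luminescence.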
For `c1ccc(CCNCCOc2ccccc2)cc1`, the Potency was inconclusive: 1.26 µM [activator, single point].
With `O=C(O)CCC(=O)N1CCN(c2ncccn2)CC1` the “activity change, negative = inhibition” value was inactive: -0.844%.
`CSc1ccccc1OCc1cc(C(=O)N2CCc3[nH]cnc3C2c2ccccn2)no1` (centres undefined) was tested, and the “activity change, negative = inhibition” value was inactive: -28.4%.
For `CS(=O)(=O)N(Cc1ccccc1)c1ccc(C(=O)Nc2cccnc2)cc1`, the Potency was inconclusive: 2.24 µM [activator, partial curve].
For `Cc1cccc2c1NC(=O)/C2=C\C(=O)c1cccs1`, the Potency was active: 7.08 µM.
In the case of `CC(C)c1ccc(-c2csc3nc[nH]c(=O)c23)cc1`, the Potency is reported as inconclusive: 10 µM [activator, partial curve].
With `O=C(Nc1ccc(-n2cc(Br)cn2)cc1)c1ccncc1` the Potency was inconclusive: 1.26 µM [activator, partial curve, poor fit].
In the case of `COc1nc(Nc2ccc(C(C)C)cc2)nc(OC)n1`, the Potency is reported as inconclusive: 15.8 µM [activator, partial curve, poor fit].
In the case of `O=C(N/N=C/c1ccc(-c2ccccc2)o1)c1ccccc1O`, the Potency is reported as inconclusive: 0.447 µM [inhibitor, full curve].
For `CC(C)N(C(=O)CSc1nc2ccccc2n1Cc1ccccc1F)C(C)C`, the Potency was inconclusive: 25.1 µM [inhibitor, single point].
`CC(NC(=O)CCN1N=C(c2ccccc2)CCC1=O)c1ccc2c(c1)OCCO2` (centres undefined) was tested, and the “activity change, negative = inhibition” value was inactive: 18.5%.
With `O=C(NCc1ccccn1)Nc1cccc(NC(=O)NCc2ccccn2)c1` the Potency was inconclusive: 35.5 µM [inhibitor, single point].
`COc1ccc(/C=N/NS(=O)(=O)c2ccc(F)cc2)cc1COc1cc(F)ccc1[N+](=O)[O-]` was tested, and the Potency was inconclusive: 0.708 µM [activator, single point].
For `O=C(O)Cn1ncn(-c2ccc(OC(F)(F)F)cc2)c1=O`, the “activity change, negative = inhibition” value was inactive: -0.64%.
For `CN1CCN(CCCN2c3ccccc3Sc3ccc(C(F)(F)F)cc32)CC1`, the Potency was inconclusive: 20 µM [inhibitor, single point].
In the case of `Cc1cc(C(=O)CN2C(=O)NC(C)(c3ccccc3)C2=O)c(C)n1CC1CCCO1` (centres undefined), the Potency is reported as inconclusive: 20 µM [activator, single point].
With `Oc1ccccc1N=Cc1c(O)ccc2oc3c(c12)CCCC3` the Potency was active: 3.16 µM.
In the case of `CCCOC(=O)c1cccc(Nc2nc(-c3cccnc3)nc3ccccc23)c1`, the Potency is reported as inconclusive: 35.5 µM [inhibitor, single point].
With `S=C1NC[C@H](c2ccccc2)N1CC1CCCCC1` the Potency was active: 1.12 µM.
In the case of `Cc1ccsc1/C=N/NC(=O)c1cc(-c2ccncc2)nc2ccccc12`, the Potency is reported as active: 1.78 µM.
With `Cc1cccc(-n2c(C)cc(/C=N/NC(=O)c3ccc(CN4CCOCC4)cc3)c2C)c1` the Potency was active: 10 µM.
With `CN(C)NC(=S)Nc1cccc(C(F)(F)F)c1` the Potency was active: 1 µM.
With `CC(C)c1ccc(/C=N\NC(=O)c2ccc(Cn3cccn3)o2)cc1` the “activity change, negative = inhibition” value was inactive: -32.7%.
`O=C(NCc1ccc2c(c1)OCO2)C1CCCN(S(=O)(=O)c2cccs2)C1` (centres undefined) was tested, and the Potency was inconclusive: 31.6 µM [activator, single point].
With `CCc1ccc(NC(=O)CSc2nc3ccccc3c(=O)n2CCCN2CCC(C)CC2)cc1` the Potency was inconclusive: 25.1 µM [inhibitor, single point].
`Cc1ccccc1C(=O)NC(=S)NCCc1ccccc1` was tested, and the Potency was active: 7.94 µM.
`Cc1cccc(N/C=C/C(=O)c2cccs2)c1C` was tested, and the Potency was active: 10 µM.
With `O=C(CNCC1CCCO1)Nc1ccccc1-n1cccc1` (centres undefined) the Potency was inconclusive: 0.199 µM [inhibitor, full curve, poor fit].
In the case of `CC(=O)N1CCc2ccc(S(=O)(=O)Nc3ccccc3Cl)cc21`, the Potency is reported as inconclusive: 12.6 µM [activator, partial curve].
For `O=c1nc(-c2ccccc2)nc(-c2ccccc2)[nH]1`, the “activity change, negative = inhibition” value was inactive: 6.07%.
`O=C(CNS(=O)(=O)c1ccccc1)N1CCN(Cc2ccccc2)CC1` was tested, and the Potency was inconclusive: 3.98 µM [activator, single point].
In the case of `CCOC(=O)/C(C(N)=NC(C)C)=C(\O)c1ccccc1`, the Potency is reported as inconclusive: 11.2 µM [activator, partial curve].
For `CCOc1ccc(OCc2cccc(C(=O)O)c2)cc1`, the Potency was active: 1.58 µM.
In the case of `COc1ccc(NC(=O)c2ccccc2OCc2ccc(F)cc2)c(OC)c1`, the Potency is reported as inconclusive: 17.8 µM [activator, partial curve].
For `O=C(O)Cc1coc2ccc3ccccc3c12`, the “activity change, negative = inhibition” value was inactive: 10.8%.
For `O=C(Cc1nc2ccccc2[nH]1)c1ccc(Cl)cc1`, the Potency was inconclusive: 10 µM [inhibitor, partial curve, poor fit].
For `O=C(COc1cccnc1[N+](=O)[O-])N1CCN(S(=O)(=O)c2ccc3ccccc3c2)CC1`, the Potency was inconclusive: 31.6 µM [activator, single point].
In the case of `Cc1ccc(NC(=S)NCc2ccccc2Cl)c(C)c1`, the Potency is reported as active: 6.31 µM.
`CCn1cc(CNC(=O)c2cc(COc3ccc(F)cc3F)on2)cn1` was tested, and the Potency was inconclusive: 35.5 µM [activator, single point].
`CC1(c2ccco2)NC(=O)NC1=O` (centres undefined) was tested, and the Potency was inconclusive: 2.51 µM [inhibitor, single point].
`Cn1c(CNC(=O)CNC(=O)c2ccccc2)cc(=O)n(C)c1=O` was tested, and the “activity change, negative = inhibition” value was inactive: -19.8%.
For `CCNc1nc(C23CC4CC(CC(C4)C2)C3)cs1`, the Potency was active: 10 µM.
In the case of `COC(=O)C(Cc1ccccc1)NC(=S)NC(=O)c1ccccc1` (centres undefined), the Potency is reported as active: 3.16 µM.
With `OCCCn1c(-c2ccccc2)nc(=S)c2c1CCCC2` the “activity change, negative = inhibition” value was inactive: -5.04%.
For `CCOC(=O)C1CCN(C(=O)CCCCn2c(=O)[nH]c3ccccc3c2=O)CC1`, the “activity change, negative = inhibition” value was inactive: 35.1%.
`COc1ccccc1-n1cnnc1SCC(=O)Nc1cc(C)on1` was tested, and the Potency was inconclusive: 35.5 µM [activator, single point].
In the case of `Fc1ccc(-c2nnn(Cc3ccc(F)cc3Cl)n2)cc1`, the Potency is reported as inconclusive: 11.2 µM [activator, partial curve].
For `COc1ccc(NC(=O)c2cccc(S(=O)(=O)N(C)c3ccccc3)c2)cn1`, the Potency was inconclusive: 5.62 µM [activator, partial curve].
In the case of `COCCCn1cc(C(=O)c2cc(OC)ccc2OCC(=O)Nc2cc(C)on2)cc(C#N)c1=O`, the “activity change, negative = inhibition” value is reported as inactive: 23.5%.
